# Test results from US20220347305A1, “CONTROLLED RELEASE DRUG DIMERS” (Ripple Therapeutics Corporation, priority 2019, published 2022).
# For at least one compound, name, drawing or mass did not settle the structure.
# Test: Pellet formation by heat molding (heat processing of compounds)
# Assay type: physicochemical
# Details: processed ~10-30° C. above Tg or Tm, pressed into cylindrical mold ~1 mm x 1 mm; light microscopy
# Description: Crystalline powder was melted at 185° C. and pellets were formed from 1 mm×1 mm cylindrical molds. The starting powder and heat-processed pellets were tested by differential scanning calorimetry (DSC; FIG. 1C) and X-ray powder diffraction (XRPD; FIG. 1D) to confirm heat-processing converted Compound 1 from the crystalline state to the glassy state.
# Compounds that were collected as stable powders and/or gums were investigated for pellet formation by heat molding. Compounds were processed at a temperature ˜10-30° C. above their corresponding thermal transitions (glass transition temperature (Tg) for gums or amorphous powders or melting point (Tm) for crystalline powders) and pressed into a cylindrical mold of ˜1 mm in height×1 mm in diameter. Light microscopy was used to capture images of the heat-formed pellets. Temperatures used to achieve a melt for heat molding were in a range from 70° C. to 220° C.
smiles,measurement,value
"CC(C(=O)OCCOCCOCCOC(=O)C(C)c1ccc(N2Cc3ccccc3C2=O)cc1)c1ccc(N2Cc3ccccc3C2=O)cc1 (stereo not shown) [Compound 2, (ethane-1,2-diylbis(oxy))bis(ethane-2,1-diyl)bis(2-(4-(1-oxoisoindolin-2-yl)phenyl)propanoate)]",Pellet formation by heat molding and handling properties of the pellet,displayed a softened state under ambient conditions and deformed during the process of removal from the mold
